Results deposited as PubChem BioAssay AID602196 (INSERM, 2012).
Assay: 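Knock-downs that protect lung cancer cells from cisplatin or sensitise them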. System: human A549 lung cancer cells. Reagents: siRNA pair against human genes. Time to read-out: 48 h transfection before cisplatin; time from cisplatin to read-out not stated. Conditions: cisplatin at a dose killing half of control-siRNA cells; exact dose and duration not given. Read-out: 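Cisplatin cell death as a shift from the 50% death seen with control siRNA; siRNAs toxic or growth-blocking alone scored 0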. Direction: two-siRNA summed score (-2 to +2): higher = both siRNAs protect from cisplatin killing; -2 means both sensitise. Hit rule: 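siRNAs harmful alone (LDH or WST-1) get 0; others get +1 for less and -1 for more cisplatin killing; genes are active when the two siRNAs give the same sign, summing to ±2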. Meaning of the calls: active = both siRNAs shift cisplatin killing the same way; inactive = no consistent shift, or siRNA harmful alone.
In all, the deposit lists about 23,000 reagents; this is a random part of them. Of all reagents, 455 (2%) are marked active. 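Active includes both protection and sensitisation; some change values fall well beyond the stated -50 to +50 range.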 Reagents against one gene are numbered here. Not all columns of the deposit are shown. The record does not give: the amount of reagent.

gene	reagent no.	two-siRNA summed score (-2 to +2)	activity call
DSCAM	1	0	inactive
CGA	1	0	inactive
CGA	2	0	inactive
PLPP3	1	0	inactive
ADCYAP1R1	1	1	inactive
LOC400340	1	-1	inactive
FLJ25404	1	0	inactive
DDX28	1	0	inactive
OR5AR1	1	1	inactive
TEX11	1	1	inactive
DAG1	1	0	inactive
PHACTR2	1	0	inactive
LOC344657	1	0	inactive

Next part, starting with the last 2 of the part before.
gene	reagent no.	two-siRNA summed score (-2 to +2)	activity call
PHACTR2	1	0	inactive
LOC344657	1	0	inactive
CYP11A1	1	0	inactive
HYAL4	1	0	inactive
PINK1	1	0	inactive
HLA-DOB	1	1	inactive
NMS	1	0	inactive
REC8	1	-1	inactive
LOC399707	1	0	inactive
BEND3	1	1	inactive
MIER2	1	0	inactive
TRABD	1	0	inactive
